# From article doi:10.1101/2025.11.17.688470
# Sequences of proteins named here, by UniProt entry; tags and fusion partners are left off.
# UniProt Q07955: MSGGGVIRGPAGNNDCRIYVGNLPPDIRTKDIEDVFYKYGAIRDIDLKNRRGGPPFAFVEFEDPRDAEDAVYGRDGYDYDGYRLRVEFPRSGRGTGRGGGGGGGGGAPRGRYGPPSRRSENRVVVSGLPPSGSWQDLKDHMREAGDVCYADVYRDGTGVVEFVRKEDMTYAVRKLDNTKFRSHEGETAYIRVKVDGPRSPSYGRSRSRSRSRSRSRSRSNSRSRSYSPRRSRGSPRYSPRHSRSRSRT
# UniProt Q9UPE1: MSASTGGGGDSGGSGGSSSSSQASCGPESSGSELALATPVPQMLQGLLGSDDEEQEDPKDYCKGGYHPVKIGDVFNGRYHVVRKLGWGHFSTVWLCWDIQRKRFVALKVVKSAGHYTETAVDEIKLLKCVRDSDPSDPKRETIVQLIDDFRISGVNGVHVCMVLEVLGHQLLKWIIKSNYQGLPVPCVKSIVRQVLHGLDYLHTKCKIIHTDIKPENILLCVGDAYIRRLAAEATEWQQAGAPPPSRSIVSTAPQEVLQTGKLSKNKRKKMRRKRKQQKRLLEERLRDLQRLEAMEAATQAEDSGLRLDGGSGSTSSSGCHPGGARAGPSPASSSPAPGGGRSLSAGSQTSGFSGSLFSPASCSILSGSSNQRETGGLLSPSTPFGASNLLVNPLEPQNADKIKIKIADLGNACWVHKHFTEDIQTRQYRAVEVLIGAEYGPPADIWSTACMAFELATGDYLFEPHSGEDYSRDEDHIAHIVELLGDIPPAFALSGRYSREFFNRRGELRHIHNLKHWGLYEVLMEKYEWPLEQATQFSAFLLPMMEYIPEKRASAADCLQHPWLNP
# UniProt O75494: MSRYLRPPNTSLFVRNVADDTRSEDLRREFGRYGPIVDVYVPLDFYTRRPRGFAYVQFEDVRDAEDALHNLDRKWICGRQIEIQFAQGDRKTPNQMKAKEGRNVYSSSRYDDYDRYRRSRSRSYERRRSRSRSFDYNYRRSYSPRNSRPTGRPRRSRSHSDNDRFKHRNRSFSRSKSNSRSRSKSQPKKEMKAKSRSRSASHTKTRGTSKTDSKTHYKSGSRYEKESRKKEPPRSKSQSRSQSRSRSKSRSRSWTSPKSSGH
# UniProt P78362: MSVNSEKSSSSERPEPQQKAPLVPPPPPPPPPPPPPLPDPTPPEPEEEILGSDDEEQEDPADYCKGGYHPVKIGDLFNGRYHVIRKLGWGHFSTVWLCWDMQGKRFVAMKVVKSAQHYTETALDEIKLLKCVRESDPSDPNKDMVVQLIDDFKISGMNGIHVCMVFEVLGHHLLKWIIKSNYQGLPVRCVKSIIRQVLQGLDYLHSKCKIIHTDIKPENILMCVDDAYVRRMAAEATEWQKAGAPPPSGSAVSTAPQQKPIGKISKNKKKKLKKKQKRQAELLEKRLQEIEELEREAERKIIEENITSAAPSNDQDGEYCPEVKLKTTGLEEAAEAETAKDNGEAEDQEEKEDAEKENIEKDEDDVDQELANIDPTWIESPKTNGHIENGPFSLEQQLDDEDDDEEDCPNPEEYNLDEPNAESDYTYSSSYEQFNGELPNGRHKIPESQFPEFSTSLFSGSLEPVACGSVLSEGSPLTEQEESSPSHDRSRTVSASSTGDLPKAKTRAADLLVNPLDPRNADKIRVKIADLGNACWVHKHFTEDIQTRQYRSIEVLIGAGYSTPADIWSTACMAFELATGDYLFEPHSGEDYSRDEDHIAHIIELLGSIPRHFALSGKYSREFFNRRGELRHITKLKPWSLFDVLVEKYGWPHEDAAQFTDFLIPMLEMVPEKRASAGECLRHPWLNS
# Target: GFP-SRSF1 wild type (Serine/arginine-rich splicing factor 1) (UniProt Q07955)
# Assay: affinity purification with mass spectrometry
substance,measurement,value
SRPK3 (from UniProt Q9UPE1 1-567) (enzyme),binding,binds
SRSF10 (from UniProt O75494 1-262),binding,binds
SRPK2 (from UniProt P78362 1-688) (enzyme),binding,binds

# Results are given in words; binding and its absence hold for the method and conditions named. In cells and extracts the contact can be indirect. A yes stands for co-enrichment or nearness to the bait. Other partners may have been found.
